Measurements from article PMC8812845.
No constants are given. Whether binding was seen depends on the method and setting. In cells and extracts the contact can be indirect. A yes stands for co-enrichment or nearness to the bait. Other partners may have been found. For part of these data: Where a sequence is shown, tags or fusion partners need not be part of it.

By UniProt entry, the sequences of proteins in these tests, tags left out.
UniProt Q9UKA9: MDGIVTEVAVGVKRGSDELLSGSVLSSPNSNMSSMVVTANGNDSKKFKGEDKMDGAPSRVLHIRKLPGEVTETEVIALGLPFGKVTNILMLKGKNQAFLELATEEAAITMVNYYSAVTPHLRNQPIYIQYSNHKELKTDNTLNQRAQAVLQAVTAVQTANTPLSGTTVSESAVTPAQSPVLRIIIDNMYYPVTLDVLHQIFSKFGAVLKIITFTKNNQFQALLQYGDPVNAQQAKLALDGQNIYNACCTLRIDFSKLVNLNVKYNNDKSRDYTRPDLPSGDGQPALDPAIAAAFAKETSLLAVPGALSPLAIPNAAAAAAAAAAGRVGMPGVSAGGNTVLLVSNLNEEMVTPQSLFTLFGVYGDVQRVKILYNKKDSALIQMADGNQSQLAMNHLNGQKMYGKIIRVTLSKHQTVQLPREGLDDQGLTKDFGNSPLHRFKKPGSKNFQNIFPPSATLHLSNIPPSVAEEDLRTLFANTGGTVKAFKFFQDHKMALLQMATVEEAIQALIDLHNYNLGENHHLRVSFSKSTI
UniProt O14746: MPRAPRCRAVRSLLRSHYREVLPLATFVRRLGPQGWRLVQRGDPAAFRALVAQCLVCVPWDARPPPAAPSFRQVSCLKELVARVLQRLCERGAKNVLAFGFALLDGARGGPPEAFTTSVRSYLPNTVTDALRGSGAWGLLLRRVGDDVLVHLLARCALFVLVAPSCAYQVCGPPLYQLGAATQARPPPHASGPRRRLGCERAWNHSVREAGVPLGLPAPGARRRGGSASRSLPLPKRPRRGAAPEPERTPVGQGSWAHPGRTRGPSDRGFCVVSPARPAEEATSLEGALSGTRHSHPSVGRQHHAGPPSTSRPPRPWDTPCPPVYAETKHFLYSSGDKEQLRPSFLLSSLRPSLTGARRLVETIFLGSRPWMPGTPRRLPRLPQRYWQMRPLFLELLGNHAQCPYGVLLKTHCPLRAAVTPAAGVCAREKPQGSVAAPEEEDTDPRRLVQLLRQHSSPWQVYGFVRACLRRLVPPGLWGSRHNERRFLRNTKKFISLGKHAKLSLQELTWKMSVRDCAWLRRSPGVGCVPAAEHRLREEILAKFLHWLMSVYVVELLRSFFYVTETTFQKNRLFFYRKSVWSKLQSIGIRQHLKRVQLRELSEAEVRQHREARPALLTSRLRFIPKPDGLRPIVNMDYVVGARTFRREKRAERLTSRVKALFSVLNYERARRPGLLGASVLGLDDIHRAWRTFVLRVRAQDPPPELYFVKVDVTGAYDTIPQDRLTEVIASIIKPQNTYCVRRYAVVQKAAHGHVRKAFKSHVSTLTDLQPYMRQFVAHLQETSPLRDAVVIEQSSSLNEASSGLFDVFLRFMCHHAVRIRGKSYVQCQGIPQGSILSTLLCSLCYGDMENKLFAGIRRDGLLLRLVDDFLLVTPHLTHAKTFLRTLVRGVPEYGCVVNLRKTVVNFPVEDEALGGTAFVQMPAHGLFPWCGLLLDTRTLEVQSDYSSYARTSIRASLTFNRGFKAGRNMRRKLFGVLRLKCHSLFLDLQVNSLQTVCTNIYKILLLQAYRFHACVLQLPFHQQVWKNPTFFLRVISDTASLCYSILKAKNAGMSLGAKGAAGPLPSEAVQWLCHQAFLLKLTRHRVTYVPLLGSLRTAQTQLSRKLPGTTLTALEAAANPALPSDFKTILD
UniProt Q9NRF9: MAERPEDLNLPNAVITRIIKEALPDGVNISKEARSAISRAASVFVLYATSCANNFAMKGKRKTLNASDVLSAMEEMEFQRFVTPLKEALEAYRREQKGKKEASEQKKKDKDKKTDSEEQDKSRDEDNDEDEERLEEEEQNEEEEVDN
UniProt Q9HCK8: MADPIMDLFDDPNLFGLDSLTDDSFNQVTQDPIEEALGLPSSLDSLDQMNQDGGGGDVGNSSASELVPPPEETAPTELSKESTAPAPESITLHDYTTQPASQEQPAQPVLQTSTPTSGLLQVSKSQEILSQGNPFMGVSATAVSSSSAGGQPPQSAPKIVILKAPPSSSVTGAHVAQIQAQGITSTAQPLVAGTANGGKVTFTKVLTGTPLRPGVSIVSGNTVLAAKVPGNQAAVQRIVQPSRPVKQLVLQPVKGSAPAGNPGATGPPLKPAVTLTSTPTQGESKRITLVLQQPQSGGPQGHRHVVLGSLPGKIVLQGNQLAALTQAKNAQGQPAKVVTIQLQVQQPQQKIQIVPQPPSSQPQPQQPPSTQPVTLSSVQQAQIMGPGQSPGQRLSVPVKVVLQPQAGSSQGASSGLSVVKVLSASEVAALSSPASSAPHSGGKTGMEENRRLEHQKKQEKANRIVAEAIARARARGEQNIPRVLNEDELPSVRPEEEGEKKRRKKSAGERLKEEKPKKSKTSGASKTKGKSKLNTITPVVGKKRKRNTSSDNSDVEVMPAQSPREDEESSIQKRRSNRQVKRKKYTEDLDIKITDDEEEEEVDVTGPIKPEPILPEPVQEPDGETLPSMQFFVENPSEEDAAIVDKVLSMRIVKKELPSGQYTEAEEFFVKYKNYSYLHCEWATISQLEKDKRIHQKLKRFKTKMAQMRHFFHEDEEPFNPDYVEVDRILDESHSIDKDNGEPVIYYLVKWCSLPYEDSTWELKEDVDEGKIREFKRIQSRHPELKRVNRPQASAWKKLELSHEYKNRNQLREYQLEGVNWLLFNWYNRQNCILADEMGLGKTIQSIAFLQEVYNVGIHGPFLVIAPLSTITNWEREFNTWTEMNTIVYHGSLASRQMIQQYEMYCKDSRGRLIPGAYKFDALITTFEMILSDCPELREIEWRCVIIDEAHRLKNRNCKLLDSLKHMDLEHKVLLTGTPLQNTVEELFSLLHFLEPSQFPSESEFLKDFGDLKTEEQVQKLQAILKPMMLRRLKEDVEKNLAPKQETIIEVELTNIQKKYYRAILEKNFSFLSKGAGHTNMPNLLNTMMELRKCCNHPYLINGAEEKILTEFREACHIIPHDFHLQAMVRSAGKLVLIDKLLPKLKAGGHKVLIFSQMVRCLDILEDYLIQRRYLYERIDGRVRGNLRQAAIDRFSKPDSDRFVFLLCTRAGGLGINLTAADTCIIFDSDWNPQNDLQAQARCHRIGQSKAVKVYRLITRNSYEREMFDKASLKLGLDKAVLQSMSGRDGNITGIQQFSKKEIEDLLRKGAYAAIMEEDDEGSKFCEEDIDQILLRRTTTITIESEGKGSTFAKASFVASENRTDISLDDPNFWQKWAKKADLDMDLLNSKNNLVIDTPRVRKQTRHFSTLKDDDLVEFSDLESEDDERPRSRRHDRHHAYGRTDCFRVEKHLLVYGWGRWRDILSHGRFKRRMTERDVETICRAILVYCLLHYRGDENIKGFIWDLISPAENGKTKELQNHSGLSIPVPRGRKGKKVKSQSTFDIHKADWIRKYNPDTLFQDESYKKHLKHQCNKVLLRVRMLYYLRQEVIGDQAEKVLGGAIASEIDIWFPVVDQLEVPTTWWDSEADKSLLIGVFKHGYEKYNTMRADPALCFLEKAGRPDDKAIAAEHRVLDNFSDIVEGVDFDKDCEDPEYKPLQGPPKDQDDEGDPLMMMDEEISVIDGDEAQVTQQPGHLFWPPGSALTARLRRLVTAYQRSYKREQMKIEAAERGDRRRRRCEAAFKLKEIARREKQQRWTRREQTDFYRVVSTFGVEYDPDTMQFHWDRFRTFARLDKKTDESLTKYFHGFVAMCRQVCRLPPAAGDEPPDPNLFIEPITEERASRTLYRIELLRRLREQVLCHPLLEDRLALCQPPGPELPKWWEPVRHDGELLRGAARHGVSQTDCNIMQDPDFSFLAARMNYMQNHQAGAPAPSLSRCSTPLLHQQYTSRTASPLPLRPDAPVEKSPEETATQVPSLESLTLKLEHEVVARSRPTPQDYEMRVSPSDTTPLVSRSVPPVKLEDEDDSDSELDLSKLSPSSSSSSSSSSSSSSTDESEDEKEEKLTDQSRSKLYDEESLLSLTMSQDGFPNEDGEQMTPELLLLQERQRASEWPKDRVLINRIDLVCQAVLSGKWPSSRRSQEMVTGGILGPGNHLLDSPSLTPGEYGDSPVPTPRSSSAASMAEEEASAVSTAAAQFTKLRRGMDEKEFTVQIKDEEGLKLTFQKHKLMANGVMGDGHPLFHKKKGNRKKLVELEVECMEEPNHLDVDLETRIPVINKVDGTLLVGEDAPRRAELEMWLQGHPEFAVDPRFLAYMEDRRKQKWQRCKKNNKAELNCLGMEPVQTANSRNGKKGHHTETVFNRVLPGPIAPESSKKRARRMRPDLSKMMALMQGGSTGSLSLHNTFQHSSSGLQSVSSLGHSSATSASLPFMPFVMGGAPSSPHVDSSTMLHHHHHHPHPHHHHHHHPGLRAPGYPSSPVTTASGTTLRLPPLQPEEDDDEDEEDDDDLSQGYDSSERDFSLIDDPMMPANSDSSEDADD
UniProt Q15811: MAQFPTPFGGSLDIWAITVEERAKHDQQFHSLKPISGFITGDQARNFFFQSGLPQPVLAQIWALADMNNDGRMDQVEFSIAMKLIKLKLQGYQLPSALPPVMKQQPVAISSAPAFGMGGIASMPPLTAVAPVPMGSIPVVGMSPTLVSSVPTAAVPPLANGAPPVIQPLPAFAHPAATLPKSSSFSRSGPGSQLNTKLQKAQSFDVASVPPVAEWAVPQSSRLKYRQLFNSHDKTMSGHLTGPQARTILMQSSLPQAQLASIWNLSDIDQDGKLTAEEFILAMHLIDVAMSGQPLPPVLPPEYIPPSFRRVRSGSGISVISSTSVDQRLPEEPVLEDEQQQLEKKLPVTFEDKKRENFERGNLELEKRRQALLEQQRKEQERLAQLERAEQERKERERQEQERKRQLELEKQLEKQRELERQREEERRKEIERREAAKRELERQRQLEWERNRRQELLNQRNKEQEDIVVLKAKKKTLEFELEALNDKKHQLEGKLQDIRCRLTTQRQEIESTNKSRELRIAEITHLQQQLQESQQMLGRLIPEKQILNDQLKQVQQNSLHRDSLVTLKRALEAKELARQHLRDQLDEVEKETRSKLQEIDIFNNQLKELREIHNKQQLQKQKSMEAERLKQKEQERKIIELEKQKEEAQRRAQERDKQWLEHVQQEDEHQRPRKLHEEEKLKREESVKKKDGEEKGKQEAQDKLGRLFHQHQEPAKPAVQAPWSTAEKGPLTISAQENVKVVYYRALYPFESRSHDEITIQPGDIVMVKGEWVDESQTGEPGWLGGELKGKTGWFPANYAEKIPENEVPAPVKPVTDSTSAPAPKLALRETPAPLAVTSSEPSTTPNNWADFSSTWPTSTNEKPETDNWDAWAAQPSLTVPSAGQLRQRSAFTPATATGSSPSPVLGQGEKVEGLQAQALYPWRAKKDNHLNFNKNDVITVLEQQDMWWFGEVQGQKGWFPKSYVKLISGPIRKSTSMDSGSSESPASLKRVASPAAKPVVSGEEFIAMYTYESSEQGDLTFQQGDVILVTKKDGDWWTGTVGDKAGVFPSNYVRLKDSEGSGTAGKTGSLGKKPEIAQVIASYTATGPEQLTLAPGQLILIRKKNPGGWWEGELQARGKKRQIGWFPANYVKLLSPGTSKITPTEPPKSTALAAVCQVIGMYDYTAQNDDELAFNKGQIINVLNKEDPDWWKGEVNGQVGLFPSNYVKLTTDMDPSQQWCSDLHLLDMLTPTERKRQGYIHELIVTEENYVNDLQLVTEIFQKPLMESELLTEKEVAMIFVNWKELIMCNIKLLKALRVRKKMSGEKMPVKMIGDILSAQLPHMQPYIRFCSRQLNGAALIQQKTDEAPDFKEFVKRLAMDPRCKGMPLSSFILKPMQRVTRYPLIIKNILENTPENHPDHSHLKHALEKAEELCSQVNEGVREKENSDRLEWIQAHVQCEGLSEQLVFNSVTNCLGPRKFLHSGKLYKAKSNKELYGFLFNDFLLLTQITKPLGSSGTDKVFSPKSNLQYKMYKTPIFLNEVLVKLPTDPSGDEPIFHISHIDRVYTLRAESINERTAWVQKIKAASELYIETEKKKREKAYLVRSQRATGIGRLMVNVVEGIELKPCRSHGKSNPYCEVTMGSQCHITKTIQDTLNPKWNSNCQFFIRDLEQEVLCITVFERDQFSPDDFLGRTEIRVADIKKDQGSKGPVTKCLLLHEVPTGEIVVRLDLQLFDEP
UniProt Q13838: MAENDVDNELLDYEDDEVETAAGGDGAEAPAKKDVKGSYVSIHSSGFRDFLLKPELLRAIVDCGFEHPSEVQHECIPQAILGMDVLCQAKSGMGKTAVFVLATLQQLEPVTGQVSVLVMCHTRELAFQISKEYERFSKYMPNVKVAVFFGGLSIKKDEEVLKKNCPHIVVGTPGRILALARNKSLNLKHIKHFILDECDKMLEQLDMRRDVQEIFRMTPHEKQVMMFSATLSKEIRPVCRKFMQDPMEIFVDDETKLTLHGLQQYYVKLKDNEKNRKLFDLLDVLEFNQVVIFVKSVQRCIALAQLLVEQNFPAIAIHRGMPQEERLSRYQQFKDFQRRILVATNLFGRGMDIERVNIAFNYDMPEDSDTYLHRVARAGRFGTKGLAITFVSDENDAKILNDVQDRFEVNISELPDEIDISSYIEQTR

B1: SART3 (protein, UniProt Q15020 1-963)
chain: MATAAETSASEPEAESKAGPKADGEEDEVKAARTRRKVLSRAVAAATYKTMGPAWDQQEEGVSESDGDEYAMASSAESSPGEYEWEYDEEEEKNQLEIERLEEQLSINVYDYNCHVDLIRLLRLEGELTKVRMARQKMSEIFPLTEELWLEWLHDEISMAQDGLDREHVYDLFEKAVKDYICPNIWLEYGQYSVGGIGQKGGLEKVRSVFERALSSVGLHMTKGLALWEAYREFESAIVEAARLEKVHSLFRRQLAIPLYDMEATFAEYEEWSEDPIPESVIQNYNKALQQLEKYKPYEEALLQAEAPRLAEYQAYIDFEMKIGDPARIQLIFERALVENCLVPDLWIRYSQYLDRQLKVKDLVLSVHNRAIRNCPWTVALWSRYLLAMERHGVDHQVISVTFEKALNAGFIQATDYVEIWQAYLDYLRRRVDFKQDSSKELEELRAAFTRALEYLKQEVEERFNESGDPSCVIMQNWARIEARLCNNMQKARELWDSIMTRGNAKYANMWLEYYNLERAHGDTQHCRKALHRAVQCTSDYPEHVCEVLLTMERTEGSLEDWDIAVQKTETRLARVNEQRMKAAEKEAALVQQEEEKAEQRKRARAEKKALKKKKKIRGPEKRGADEDDEKEWGDDEEEQPSKRRRVENSIPAAGETQNVEVAAGPAGKCAAVDVEPPSKQKEKAASLKRDMPKVLHDSSKDSITVFVSNLPYSMQEPDTKLRPLFEACGEVVQIRPIFSNRGDFRGYCYVEFKEEKSALQALEMDRKSVEGRPMFVSPCVDKSKNPDFKVFRYSTSLEKHKLFISGLPFSCTKEELEEICKAHGTVKDLRLVTNRAGKPKGLAYVEYENESQASQAVMKMDGMTIKENIIKVAISNPPQRKVPEKPETRKAPGGPMLLPQTYGARGKGRTQLSLLPRALQRPSAAAPQAENGPAAAPAVAAPAATEAPKMSNADFAKLFLRK
B2: ISY1 (protein, UniProt Q9ULR0 1-285)
chain: MARNAEKAMTALARFRQAQLEEGKVKERRPFLASECTELPKAEKWRRQIIGEISKKVAQIQNAGLGEFRIRDLNDEINKLLREKGHWEVRIKELGGPDYGKVGPKMLDHEGKEVPGNRGYKYFGAAKDLPGVRELFEKEPLPPPRKTRAELMKAIDFEYYGYLDEDDGVIVPLEQEYEKKLRAELVEKWKAEREARLARGEKEEEEEEEEEINIYAVTEEESDEEGSQEKGGDDSQQKFIAHVPVPSQQEIEEALVRRKKMELLQKYASETLQAQSEEARRLLGY
B3: RRP44 (protein, UniProt Q9Y2L1 1-958)
chain: MLKSKTFLKKTRAGGVMKIVREHYLRDDIGCGAPGCAACGGAHEGPALEPQPQDPASSVCPQPHYLLPDTNVLLHQIDVLEDPAIRNVIVLQTVLQEVRNRSAPVYKRIRDVTNNQEKHFYTFTNEHHRETYVEQEQGENANDRNDRAIRVAAKWYNEHLKKMSADNQLQVIFITNDRRNKEKAIEEGIPAFTCEEYVKSLTANPELIDRLACLSEEGNEIESGKIIFSEHLPLSKLQQGIKSGTYLQGTFRASRENYLEATVWIHGDNEENKEIILQGLKHLNRAVHEDIVAVELLPKSQWVAPSSVVLHDEGQNEEDVEKEEETERMLKTAVSEKMLKPTGRVVGIIKRNWRPYCGMLSKSDIKESRRHLFTPADKRIPRIRIETRQASTLEGRRIIVAIDGWPRNSRYPNGHFVRNLGDVGEKETETEVLLLEHDVPHQPFSQAVLSFLPKMPWSITEKDMKNREDLRHLCICSVDPPGCTDIDDALHCRELENGNLEVGVHIADVSHFIRPGNALDQESARRGTTVYLCEKRIDMVPELLSSNLCSLKCDVDRLAFSCIWEMNHNAEILKTKFTKSVINSKASLTYAEAQLRIDSANMNDDITTSLRGLNKLAKILKKRRIEKGALTLSSPEVRFHMDSETHDPIDLQTKELRETNSMVEEFMLLANISVAKKIHEEFSEHALLRKHPAPPPSNYEILVKAARSRNLEIKTDTAKSLAESLDQAESPTFPYLNTLLRILATRCMMQAVYFCSGMDNDFHHYGLASPIYTHFTSPIRRYADVIVHRLLAVAIGADCTYPELTDKHKLADICKNLNFRHKMAQYAQRASVAFHTQLFFKSKGIVSEEAYILFVRKNAIVVLIPKYGLEGTVFFEEKDKPNPQLIYDDEIPSLKIEDTVFHVFDKVKVKIMLDSSNLQHQKIRMSLVEPQIPGISIPTDTSNMDLNGPKKKKMKLGK
B4: ubiquitin carboxyl terminal hydrolase USP4 (protein, UniProt Q13107 1-963)
chain: MAEGGGCRERPDAETQKSELGPLMRTTLQRGAQWYLIDSRWFKQWKKYVGFDSWDMYNVGEHNLFPGPIDNSGLFSDPESQTLKEHLIDELDYVLVPTEAWNKLLNWYGCVEGQQPIVRKVVEHGLFVKHCKVEVYLLELKLCENSDPTNVLSCHFSKADTIATIEKEMRKLFNIPAERETRLWNKYMSNTYEQLSKLDNTVQDAGLYQGQVLVIEPQNEDGTWPRQTLQSKSSTAPSRNFTTSPKSSASPYSSVSASLIANGDSTSTCGMHSSGVSRGGSGFSASYNCQEPPSSHIQPGLCGLGNLGNTCFMNSALQCLSNTAPLTDYFLKDEYEAEINRDNPLGMKGEIAEAYAELIKQMWSGRDAHVAPRMFKTQVGRFAPQFSGYQQQDSQELLAFLLDGLHEDLNRVKKKPYLELKDANGRPDAVVAKEAWENHRLRNDSVIVDTFHGLFKSTLVCPECAKVSVTFDPFCYLTLPLPLKKDRVMEVFLVPADPHCRPTQYRVTVPLMGAVSDLCEALSRLSGIAAENMVVADVYNHRFHKIFQMDEGLNHIMPRDDIFVYEVCSTSVDGSECVTLPVYFRERKSRPSSTSSASALYGQPLLLSVPKHKLTLESLYQAVCDRISRYVKQPLPDEFGSSPLEPGACNGSRNSCEGEDEEEMEHQEEGKEQLSETEGSGEDEPGNDPSETTQKKIKGQPCPKRLFTFSLVNSYGTADINSLAADGKLLKLNSRSTLAMDWDSETRRLYYDEQESEAYEKHVSMLQPQKKKKTTVALRDCIELFTTMETLGEHDPWYCPNCKKHQQATKKFDLWSLPKILVVHLKRFSYNRYWRDKLDTVVEFPIRGLNMSEFVCNLSARPYVYDLIAVSNHYGAMGVGHYTAYAKNKLNGKWYYFDDSNVSLASEDQIVTKAAYVLFYQRRDDEFYKTPSLSSSGSSDGGTRPSSSQQGFGDDEACSMDTN
B5: histone deubiquitinase MYSM1 (enzyme, UniProt Q5VVJ2 1-828)
chain: MAAEEADVDIEGDVVAAAGAQPGSGENTASVLQKDHYLDSSWRTENGLIPWTLDNTISEENRAVIEKMLLEEEYYLSKKSQPEKVWLDQKEDDKKYMKSLQKTAKIMVHSPTKPASYSVKWTIEEKELFEQGLAKFGRRWTKISKLIGSRTVLQVKSYARQYFKNKVKCGLDKETPNQKTGHNLQVKNEDKGTKAWTPSCLRGRADPNLNAVKIEKLSDDEEVDITDEVDELSSQTPQKNSSSDLLLDFPNSKMHETNQGEFITSDSQEALFSKSSRGCLQNEKQDETLSSSEITLWTEKQSNGDKKSIELNDQKFNELIKNCNKHDGRGIIVDARQLPSPEPCEIQKNLNDNEMLFHSCQMVEESHEEEELKPPEQEIEIDRNIIQEEEKQAIPEFFEGRQAKTPERYLKIRNYILDQWEICKPKYLNKTSVRPGLKNCGDVNCIGRIHTYLELIGAINFGCEQAVYNRPQTVDKVRIRDRKDAVEAYQLAQRLQSMRTRRRRVRDPWGNWCDAKDLEGQTFEHLSAEELAKRREEEKGRPVKSLKVPRPTKSSFDPFQLIPCNFFSEEKQEPFQVKVASEALLIMDLHAHVSMAEVIGLLGGRYSEVDKVVEVCAAEPCNSLSTGLQCEMDPVSQTQASETLAVRGFSVIGWYHSHPAFDPNPSLRDIDTQAKYQSYFSRGGAKFIGMIVSPYNRNNPLPYSQITCLVISEEISPDGSYRLPYKFEVQQMLEEPQWGLVFEKTRWIIEKYRLSHSSVPMDKIFRRDSDLTCLQKLLECMRKTLSKVTNCFMAEEFLTEIENLFLSNYKSNQENGVTEENCTKELLM
B6: non-receptor serine/threonine protein kinase MAP3K12 (enzyme, UniProt Q12852 1-859)
chain: MACLHETRTPSPSFGGFVSTLSEASMRKLDPDTSDCTPEKDLTPTHVLQLHEQDAGGPGGAAGSPESRASRVRADEVRLQCQSGSGFLEGLFGCLRPVWTMIGKAYSTEHKQQQEDLWEVPFEEILDLQWVGSGAQGAVFLGRFHGEEVAVKKVRDLKETDIKHLRKLKHPNIITFKGVCTQAPCYCILMEFCAQGQLYEVLRAGRPVTPSLLVDWSMGIAGGMNYLHLHKIIHRDLKSPNMLITYDDVVKISDFGTSKELSDKSTKMSFAGTVAWMAPEVIRNEPVSEKVDIWSFGVVLWELLTGEIPYKDVDSSAIIWGVGSNSLHLPVPSSCPDGFKILLRQCWNSKPRNRPSFRQILLHLDIASADVLSTPQETYFKSQAEWREEVKLHFEKIKSEGTCLHRLEEELVMRRREELRHALDIREHYERKLERANNLYMELNALMLQLELKERELLRREQALERRCPGLLKPHPSRGLLHGNTMEKLIKKRNVPQKLSPHSKRPDILKTESLLPKLDAALSGVGLPGCPKGPPSPGRSRRGKTRHRKASAKGSCGDLPGLRTAVPPHEPGGPGSPGGLGGGPSAWEACPPALRGLHHDLLLRKMSSSSPDLLSAALGSRGRGATGGAGDPGSPPPARGDTPPSEGSAPGSTSPDSPGGAKGEPPPPVGPGEGVGLLGTGREGTSGRGGSRAGSQHLTPAALLYRAAVTRSQKRGISSEEEEGEVDSEVELTSSQRWPQSLNMRQSLSTFSSENPSDGEEGTASEPSPSGTPEVGSTNTDERPDERSDDMCSQGSEIPLDPPPSEVIPGPEPSSLPIPHQELLRERGPPNSEDSDCDSTELDNSNSVDALRPPASLPP

Target: His6-tagged PTBP1 (human)
Test: affinity purification with mass spectrometry; 48 ug His6-PTBP incubated in 200 ul splicing reaction (2.2 mM MgCl2, 0.4 mM ATP, 20 mM creatine phosphate, HeLa nuclear extract) at 30°C for 90 min; captured on HisPur Ni-NTA magnetic resin overnight at 4°C, washed (150 mM NaCl, 30 mM imidazole), eluted with 300 mM imidazole; LC-MS/MS; proteins of the Buffer DG and HeLa only controls and common contaminants removed; only the target purified

binding, binds:
B1, B2, B3, B4

Target: His6-tagged PTBP2 (human) (UniProt Q9UKA9)
Test: as above

binding, binds:
telomerase reverse transcriptase TERT (from UniProt O14746 1-1132) (enzyme), BRPF3 (from UniProt Q9ULD4 1-1205), DPOE3 (from UniProt Q9NRF9 1-147), GATA4 (from UniProt P43694 1-442), chromodomain helicase CHD8 (from UniProt Q9HCK8 1-2581), BSN (from UniProt Q9UPA5 1-3926), ASH2 (from UniProt Q9UBL3 1-628), ITSN1 (from UniProt Q15811 1-1721), nuclear receptor coactivator 3 (from UniProt Q9Y6Q9 1-1424), lysine demethylase RSBN1 (from UniProt Q5VWQ0 1-802) (enzyme), BAZ2A (from UniProt Q9UIF9 1-1905), DX39B (from UniProt Q13838 1-428), KI67 (from UniProt P46013 1-3256), HPCA (from UniProt P84074 1-193), UBE2H (from UniProt P62256 1-183), B5, B6
